The data set relates to inflammatory pulmonary consolidation. Kind of data set: I-124 PUH71 PET-CT, tracer mixed with a therapeutic dose of non-radioactive PUH71 (FIGS. 3-4). Type of data set: in vivo, human. On the procedure: Positron emission tomography (PET) combined with X-ray computed tomography (CT) was performed using a state of the art integrated PET-CT scanner (Discovery DSTE™ General Electric). CT scans for attenuation correction and anatomic coregistration were performed prior to tracer-injection, using the following acquisition parameters: 140 kVp; 85 mA; pitch of 1.75:1; reconstructed slice thickness of 3.75 mm; 0.8 s per rotation. The CT protocol was designed for anatomic localization of tracer-signal and for attenuation correction, while minimizing radiation exposure. Each patient received ˜185 megabecquerel (MBq) [^124I]-PU-H71 by peripheral vein over two minutes. PET emission scans were acquired in two-dimensional mode starting at the mid-thighs moving toward the head, for 7.5 minutes per PET bed position. […]
PU-PET images were taken 1.5, 4, 24 and 48-72 hrs after co-administration on the tracer mixed with a therapeutic dose of non-radioactive PUH71 in a total volume of […], co-infused intravenously over one hour. Patient were treated with PU-H71 at escalating dose levels determined by a modified continuous reassessment model. […] Pre- and post-treatment biopsies were collected for correlative studies including LCMSMS quantification of PU-H71, with the latter obtained within 24 hours of their cycle 1, day 1 dose of PU-H71.

The source of these data is patent US10617772B2, “Hsp9O-targeted inflammation and infection imaging and therapy” (Memorial Sloan Kettering Cancer Center, priority 2014, dated 2020).

As to `CC(C)NCCCn1c(Sc2cc3c(cc2[124I])OCO3)nc2c(N)ncnc21` [I-124 PUH71], for the setting “FIGS. 1-4”, the “time after injection of the radiotracer at which an inflammation/infection can still be detected” value is “at least 24 hours”. In addition, the “time after injection of the radiotracer at which an inflammation/infection can be detected (early detection)” value (FIGS. 3 and 4) is “about 4 hours”.
